This is one part of the list.
What was measured:
Assay in all cases: log2 fold change, soluble protein after heating vs DMSO (PISA); higher = thermal stabilisation; K562 lysate, 10 uM; active = over 0.2 and 3.5 SD of the protein, either way, in both replicates (recomputed)
[1] = compound: CCCS(=O)(=O)Nc1ccc(F)c(C(=O)c2c[nH]c3ncc(-c4ccc(Cl)cc4)cc23)c1F [vemurafenib]
In short: (§1)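 The values are log-two fold changes in thermal stability compared with solvent controls and come from duplicates. They were obtained by TMTpro 16plex LC-MS/MS, with channel sums equalised, on the supernatant after 21,000xg for 90 min. That supernatant came from crude K562 extract at 1 mg/mL protein treated with 10 μM compound for 30 min, heated for 3 min across 48°C-58°C, pooled and brought to 0.5% NP-40 at 4°C.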

Sequences of proteins named here, by UniProt entry; tags and fusion partners are left off. A change or cut given only in a name is not applied to a line headed by its entry.
UniProt Q00587: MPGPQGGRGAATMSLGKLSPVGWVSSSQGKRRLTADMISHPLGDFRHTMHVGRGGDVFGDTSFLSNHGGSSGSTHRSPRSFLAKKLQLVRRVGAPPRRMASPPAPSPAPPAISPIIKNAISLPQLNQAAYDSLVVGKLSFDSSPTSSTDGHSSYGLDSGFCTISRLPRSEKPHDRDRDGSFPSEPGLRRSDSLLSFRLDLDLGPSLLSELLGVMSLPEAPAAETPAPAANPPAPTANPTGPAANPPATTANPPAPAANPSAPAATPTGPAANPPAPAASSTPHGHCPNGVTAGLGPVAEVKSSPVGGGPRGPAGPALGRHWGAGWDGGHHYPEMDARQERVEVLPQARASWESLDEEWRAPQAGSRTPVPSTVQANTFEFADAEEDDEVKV
UniProt O15078: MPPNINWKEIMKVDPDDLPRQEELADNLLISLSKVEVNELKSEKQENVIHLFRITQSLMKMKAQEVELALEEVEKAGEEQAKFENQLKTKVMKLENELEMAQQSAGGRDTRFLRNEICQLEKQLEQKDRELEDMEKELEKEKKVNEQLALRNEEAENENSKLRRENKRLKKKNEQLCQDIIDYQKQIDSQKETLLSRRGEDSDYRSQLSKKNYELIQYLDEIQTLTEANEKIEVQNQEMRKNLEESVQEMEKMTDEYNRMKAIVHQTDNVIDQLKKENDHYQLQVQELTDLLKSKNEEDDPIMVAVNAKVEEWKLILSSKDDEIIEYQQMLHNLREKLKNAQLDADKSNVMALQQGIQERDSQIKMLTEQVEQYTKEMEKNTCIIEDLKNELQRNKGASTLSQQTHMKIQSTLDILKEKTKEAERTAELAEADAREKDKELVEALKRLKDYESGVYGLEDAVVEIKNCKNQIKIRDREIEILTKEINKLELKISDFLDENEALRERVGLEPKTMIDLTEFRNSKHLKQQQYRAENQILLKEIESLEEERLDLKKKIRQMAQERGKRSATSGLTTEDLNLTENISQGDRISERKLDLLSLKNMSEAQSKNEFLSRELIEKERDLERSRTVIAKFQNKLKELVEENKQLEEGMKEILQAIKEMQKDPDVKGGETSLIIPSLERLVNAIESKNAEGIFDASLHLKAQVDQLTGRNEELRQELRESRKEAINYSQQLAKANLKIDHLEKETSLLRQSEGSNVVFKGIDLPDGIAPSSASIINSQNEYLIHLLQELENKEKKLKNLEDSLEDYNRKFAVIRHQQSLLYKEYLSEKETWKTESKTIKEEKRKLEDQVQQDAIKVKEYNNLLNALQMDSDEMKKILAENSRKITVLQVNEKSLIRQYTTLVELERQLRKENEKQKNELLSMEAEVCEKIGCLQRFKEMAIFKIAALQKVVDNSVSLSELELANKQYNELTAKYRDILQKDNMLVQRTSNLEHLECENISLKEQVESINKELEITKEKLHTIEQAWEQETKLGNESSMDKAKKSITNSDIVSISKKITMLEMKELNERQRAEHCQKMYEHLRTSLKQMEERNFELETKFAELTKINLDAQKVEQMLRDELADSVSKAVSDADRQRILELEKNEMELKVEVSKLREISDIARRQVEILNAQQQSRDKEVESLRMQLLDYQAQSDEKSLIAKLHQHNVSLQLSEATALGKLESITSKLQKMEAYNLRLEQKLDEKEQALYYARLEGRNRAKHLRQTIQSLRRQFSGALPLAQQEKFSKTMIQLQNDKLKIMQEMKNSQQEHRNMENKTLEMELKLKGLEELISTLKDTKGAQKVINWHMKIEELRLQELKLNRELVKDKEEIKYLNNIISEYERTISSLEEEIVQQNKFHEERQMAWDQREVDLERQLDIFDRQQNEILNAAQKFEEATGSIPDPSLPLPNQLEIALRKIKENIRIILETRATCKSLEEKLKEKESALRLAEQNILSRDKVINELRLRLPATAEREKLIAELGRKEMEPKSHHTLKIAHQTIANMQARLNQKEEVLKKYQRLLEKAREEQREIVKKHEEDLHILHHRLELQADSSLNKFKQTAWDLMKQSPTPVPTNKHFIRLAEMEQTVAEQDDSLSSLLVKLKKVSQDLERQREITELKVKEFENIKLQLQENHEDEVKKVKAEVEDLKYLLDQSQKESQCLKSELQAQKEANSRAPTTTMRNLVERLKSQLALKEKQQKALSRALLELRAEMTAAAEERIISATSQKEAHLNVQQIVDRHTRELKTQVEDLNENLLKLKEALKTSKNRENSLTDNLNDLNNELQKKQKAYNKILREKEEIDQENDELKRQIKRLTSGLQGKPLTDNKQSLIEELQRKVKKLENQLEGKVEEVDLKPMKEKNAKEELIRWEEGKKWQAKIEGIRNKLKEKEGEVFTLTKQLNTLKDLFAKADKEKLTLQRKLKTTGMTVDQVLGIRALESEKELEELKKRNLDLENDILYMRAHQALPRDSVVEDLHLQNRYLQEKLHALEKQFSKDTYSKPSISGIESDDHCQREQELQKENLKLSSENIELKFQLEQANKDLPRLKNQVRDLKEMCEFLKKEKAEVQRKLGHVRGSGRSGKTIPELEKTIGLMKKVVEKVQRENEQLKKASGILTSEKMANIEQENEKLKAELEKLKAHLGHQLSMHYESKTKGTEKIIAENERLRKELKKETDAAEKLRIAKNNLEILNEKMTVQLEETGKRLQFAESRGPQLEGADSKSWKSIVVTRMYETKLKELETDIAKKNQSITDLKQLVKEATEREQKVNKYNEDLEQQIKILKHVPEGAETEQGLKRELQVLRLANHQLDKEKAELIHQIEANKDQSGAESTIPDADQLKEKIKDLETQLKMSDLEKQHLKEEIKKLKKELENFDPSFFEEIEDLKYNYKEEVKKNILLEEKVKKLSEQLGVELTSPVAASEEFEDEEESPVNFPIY
UniProt P11802: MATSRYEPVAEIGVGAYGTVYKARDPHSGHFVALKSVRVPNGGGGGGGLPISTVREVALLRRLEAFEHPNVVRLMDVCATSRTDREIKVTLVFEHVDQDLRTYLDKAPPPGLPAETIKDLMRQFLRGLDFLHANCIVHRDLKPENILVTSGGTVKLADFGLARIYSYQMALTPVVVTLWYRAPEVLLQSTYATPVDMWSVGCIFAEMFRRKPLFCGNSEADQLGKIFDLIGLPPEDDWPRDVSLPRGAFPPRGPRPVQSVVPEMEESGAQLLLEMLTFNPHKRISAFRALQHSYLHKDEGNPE
UniProt P49427: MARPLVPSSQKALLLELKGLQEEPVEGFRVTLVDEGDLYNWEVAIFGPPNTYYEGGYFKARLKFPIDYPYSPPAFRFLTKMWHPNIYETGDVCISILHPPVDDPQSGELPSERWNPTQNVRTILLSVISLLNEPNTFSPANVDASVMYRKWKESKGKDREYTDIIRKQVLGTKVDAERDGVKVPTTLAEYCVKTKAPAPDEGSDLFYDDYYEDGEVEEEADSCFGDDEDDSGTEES
UniProt Q6ZMG9: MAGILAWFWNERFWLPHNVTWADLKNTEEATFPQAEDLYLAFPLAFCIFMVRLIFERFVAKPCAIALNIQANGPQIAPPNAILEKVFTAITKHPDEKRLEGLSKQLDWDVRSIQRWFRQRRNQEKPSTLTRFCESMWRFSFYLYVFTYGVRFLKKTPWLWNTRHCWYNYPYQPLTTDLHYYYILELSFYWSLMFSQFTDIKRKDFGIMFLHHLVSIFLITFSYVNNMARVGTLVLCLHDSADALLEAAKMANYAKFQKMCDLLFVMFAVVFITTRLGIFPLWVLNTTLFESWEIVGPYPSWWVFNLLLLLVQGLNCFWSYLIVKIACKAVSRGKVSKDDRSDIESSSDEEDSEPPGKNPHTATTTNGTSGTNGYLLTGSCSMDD
UniProt P50613: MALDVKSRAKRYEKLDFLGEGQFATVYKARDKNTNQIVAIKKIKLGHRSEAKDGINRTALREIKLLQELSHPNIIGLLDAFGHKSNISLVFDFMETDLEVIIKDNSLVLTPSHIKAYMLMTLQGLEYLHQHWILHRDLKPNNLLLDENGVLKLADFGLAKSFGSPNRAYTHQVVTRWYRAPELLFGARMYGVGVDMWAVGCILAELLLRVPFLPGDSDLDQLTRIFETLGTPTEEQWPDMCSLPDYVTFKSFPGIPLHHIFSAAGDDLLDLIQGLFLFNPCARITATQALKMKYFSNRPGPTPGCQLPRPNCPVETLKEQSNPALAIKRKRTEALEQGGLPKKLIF
UniProt Q5VV42: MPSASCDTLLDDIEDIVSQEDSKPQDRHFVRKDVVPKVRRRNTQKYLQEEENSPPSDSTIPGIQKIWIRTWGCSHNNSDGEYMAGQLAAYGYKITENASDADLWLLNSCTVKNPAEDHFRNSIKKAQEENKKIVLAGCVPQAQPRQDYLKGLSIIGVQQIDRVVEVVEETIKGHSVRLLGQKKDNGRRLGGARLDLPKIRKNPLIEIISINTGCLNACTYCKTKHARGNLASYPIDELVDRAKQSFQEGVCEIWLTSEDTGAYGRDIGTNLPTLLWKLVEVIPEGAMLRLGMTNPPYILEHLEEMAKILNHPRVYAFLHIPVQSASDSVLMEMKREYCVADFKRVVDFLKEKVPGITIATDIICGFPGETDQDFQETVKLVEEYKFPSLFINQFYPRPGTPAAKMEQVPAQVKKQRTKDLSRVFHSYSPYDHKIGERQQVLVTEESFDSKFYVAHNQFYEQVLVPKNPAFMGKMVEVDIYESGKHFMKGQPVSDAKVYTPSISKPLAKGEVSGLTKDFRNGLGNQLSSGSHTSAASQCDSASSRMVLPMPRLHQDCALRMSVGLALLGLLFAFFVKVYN
UniProt Q9UJX2, whole entry, looked up: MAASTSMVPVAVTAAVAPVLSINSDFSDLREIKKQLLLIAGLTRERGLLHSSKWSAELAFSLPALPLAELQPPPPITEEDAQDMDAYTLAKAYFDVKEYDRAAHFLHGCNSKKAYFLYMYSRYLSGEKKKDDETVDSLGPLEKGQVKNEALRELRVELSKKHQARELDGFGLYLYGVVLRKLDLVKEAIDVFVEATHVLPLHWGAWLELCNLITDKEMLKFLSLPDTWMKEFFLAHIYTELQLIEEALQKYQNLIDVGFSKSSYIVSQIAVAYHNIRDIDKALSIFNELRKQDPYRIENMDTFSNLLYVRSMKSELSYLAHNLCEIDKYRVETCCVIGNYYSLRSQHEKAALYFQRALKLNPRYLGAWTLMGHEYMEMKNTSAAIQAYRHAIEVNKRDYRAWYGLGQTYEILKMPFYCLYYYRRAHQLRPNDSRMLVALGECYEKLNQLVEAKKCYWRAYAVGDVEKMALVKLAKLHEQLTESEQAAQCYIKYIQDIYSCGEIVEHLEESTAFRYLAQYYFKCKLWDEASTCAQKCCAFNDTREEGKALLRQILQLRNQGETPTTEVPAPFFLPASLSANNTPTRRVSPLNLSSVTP
UniProt Q8TAP6: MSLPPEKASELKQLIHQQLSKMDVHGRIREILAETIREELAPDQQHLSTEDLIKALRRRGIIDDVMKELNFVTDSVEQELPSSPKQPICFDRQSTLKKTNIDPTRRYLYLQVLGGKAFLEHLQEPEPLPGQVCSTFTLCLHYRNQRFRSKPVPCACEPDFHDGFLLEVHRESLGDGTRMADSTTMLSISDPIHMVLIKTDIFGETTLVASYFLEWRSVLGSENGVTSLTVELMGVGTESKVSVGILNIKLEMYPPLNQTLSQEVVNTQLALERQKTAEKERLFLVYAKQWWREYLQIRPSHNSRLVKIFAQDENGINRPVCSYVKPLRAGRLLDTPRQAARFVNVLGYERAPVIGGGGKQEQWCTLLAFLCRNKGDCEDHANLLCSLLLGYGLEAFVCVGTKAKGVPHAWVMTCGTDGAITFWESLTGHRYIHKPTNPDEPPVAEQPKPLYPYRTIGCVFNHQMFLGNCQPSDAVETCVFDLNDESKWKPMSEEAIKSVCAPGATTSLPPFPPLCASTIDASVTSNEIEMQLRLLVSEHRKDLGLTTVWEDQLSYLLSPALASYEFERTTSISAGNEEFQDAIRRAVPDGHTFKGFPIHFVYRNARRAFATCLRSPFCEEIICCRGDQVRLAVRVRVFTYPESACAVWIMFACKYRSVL
UniProt Q96FF9: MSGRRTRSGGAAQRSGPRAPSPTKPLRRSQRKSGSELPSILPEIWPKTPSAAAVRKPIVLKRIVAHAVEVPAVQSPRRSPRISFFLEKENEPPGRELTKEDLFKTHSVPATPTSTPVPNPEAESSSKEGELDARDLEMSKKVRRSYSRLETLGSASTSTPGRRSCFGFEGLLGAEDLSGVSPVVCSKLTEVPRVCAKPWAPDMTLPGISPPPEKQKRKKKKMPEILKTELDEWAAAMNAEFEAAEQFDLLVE

[2] = compound: CCCS(=O)(=O)Nc1ccc(F)c(C(=O)c2c[nH]c3ncc(Cl)cc23)c1F
In short: as §1

[3] = compound: CCN(CCCOc1ccc2c(Nc3cc(CC(=O)Nc4cccc(F)c4)[nH]n3)ncnc2c1)CCOP(=O)(O)O [barasertib]
In short: as §1

[4] = compound: CC[C@@H]1C(=O)N(C)c2cnc(Nc3ccc(C(=O)NC4CCN(C)CC4)cc3OC)nc2N1C1CCCC1
In short: as §1

[5] = compound: CC[C@@H]1C(=O)N(C)c2cnc(Nc3ccc(C(=O)N[C@H]4CC[C@H](N5CCN(CC6CC6)CC5)CC4)cc3OC)nc2N1C(C)C [volasertib]
In short: as §1

[6] = compound: CCn1c(C(=O)N(C2CC2)C2CC2)cc2c3c(ncn3C)c(Nc3cc(C)n(C)n3)nc21
In short: as §1

[7] = compound: CCn1cc(-c2ccnc3[nH]c(-c4cccc(CN(C)C)c4)cc23)c(-c2ccc(NC(=O)N(C)C)cc2)n1
In short: as §1

[8] = compound: CN1CCC(CNc2ccc3ncc(-c4cccc(OC(F)(F)F)c4)n3n2)CC1
In short: as §1

[9] = compound: CN1CCN(CCOc2cc(OC3CCOCC3)c3c(Nc4c(Cl)ccc5c4OCO5)ncnc3c2)CC1 [saracatinib]
In short: as §1

[10] = compound: CN1CCN(c2nc(C3=C(c4c[nH]c5ccccc45)C(=O)NC3=O)c3ccccc3n2)CC1 [sotrastaurin]
In short: as §1

[11] = compound: CN1CC[C@H](c2c(O)cc(O)c3c(=O)cc(-c4ccccc4Cl)oc23)[C@H](O)C1 [alvocidib]
In short: as §1

[12] = compound: CN1CCc2c(c3ccccc3n2Cc2ccc(C(=O)NO)cc2)C1 [Tubastatin A]
In short: as §1

[13] = compound: CNC(=O)C1=CC=CC=C1NC2=NC(=NC=C2Cl)NC3=C(C=C(C=C3)N4CCOCC4)OC
In short: as §1

[14] = compound: CNC(=O)c1ccc(Nc2ncc(C(F)(F)F)c(NCc3nccnc3N(C)S(C)(=O)=O)n2)cc1 [defactinib]
In short: as §1

[15] = compound: CNc1nc(-c2ccc3c(N)n[nH]c3c2)cc(N2C[C@@H](C(=O)NC3CCCCC3)CC[C@H]2C)n1
In short: as §1

[16] = compound: COC(=O)N[C@@H](C)CNc1nccc(-c2cn(C(C)C)nc2-c2cc(Cl)cc(NS(C)(=O)=O)c2F)n1 [encorafenib]
In short: as §1

[17] = compound: COC(=O)[C@H](CCSC)NC(=O)C1=C(C=C(C=C1)NC[C@H](CS)N)C2=CC=CC=C2
In short: as §1

[18] = compound: COc1cc(Nc2ncc3c(n2)-c2ccc(Cl)cc2C(c2c(F)cccc2OC)=NC3)ccc1C(=O)O [alisertib]
In short: as §1

[19] = compound: COc1cc2nc(-c3cc(F)ccc3O)nc(N[C@@H]3CNC[C@H]3C(C)(C)O)c2cc1OC
In short: as §1

[20] = compound: COc1cc2ncnc(Nc3ccc(F)c(Cl)c3)c2cc1OCCCN1CCOCC1 [gefitinib]
In short: as §1

Measured: log2 fold change

CDC42EP1 (UniProt Q00587)
inactive: [1] 0.079 | [2] -0.041 | [3] -0.09 | [4] 0.011 | [5] -0.079 | [6] -0.086 | [7] -0.048 | [8] -0.173 | [9] 0.138 | [10] -0.006 | [11] -0.014 | [12] 0.019 | [13] 0.006 | [14] -0.095 | [15] 0.056 | [16] 0.087 | [17] 0.001 | [18] 0.117 | [19] 0.023 | [20] 0.103

CEP290 (UniProt O15078)
inactive: [1] -0.021 | [2] 0.021 | [3] -0.169 | [4] 0.005 | [5] -0.026 | [6] -0.046 | [7] -0.031 | [8] 0.018 | [9] 0 | [10] 0.017 | [11] -0.001 | [12] -0.077 | [13] -0.008 | [14] 0.098 | [15] 0.103 | [16] 0.076 | [17] -0.109 | [18] -0.009 | [19] 0.017 | [20] 0.018

CDK4 (UniProt P11802)
inactive: [1] -0.004 | [2] 0.029 | [3] 0.069 | [4] -0.015 | [5] -0.03 | [6] -0.031 | [7] 0.274 | [8] -0.023 | [9] 0.043 | [10] 0.034 | [11] 0.11 | [12] -0.028 | [13] 0.065 | [14] 0.091 | [15] -0.001 | [16] 0.065 | [17] 0.025 | [18] 0.002 | [19] 0.012 | [20] 0.002

CDC34 (UniProt P49427)
inactive: [1] 0.083 | [2] 0.017 | [3] 0.006 | [4] -0.004 | [5] -0.028 | [6] 0.107 | [7] -0.057 | [8] -0.031 | [9] 0.058 | [10] 0.005 | [11] 0.057 | [12] -0.216 | [13] -0.017 | [14] -0.007 | [15] -0.041 | [16] -0.025 | [17] -0.052 | [18] 0.021 | [19] -0.016 | [20] 0.057

CERS6 isoform 2 (UniProt Q6ZMG9)
inactive: [1] -0.03 | [2] 0.146 | [3] -0.074 | [4] -0.18 | [5] 0.03 | [6] -0.05 | [7] -0.097 | [8] 0.175 | [9] -0.141 | [10] 0.118 | [11] 0.001 | [12] 0 | [13] 0.099 | [14] 0.019 | [15] -0.127 | [16] 0.027 | [17] -0.119 | [18] 0.009 | [19] 0.102 | [20] 0.027

CEP192 (UniProt Q8TEP8)
inactive: [1] -0.003 | [2] 0.013 | [3] 0.206 | [4] 0.049 | [5] 0.05 | [6] 0.051 | [7] 0.499 | [8] -0.03 | [9] 0.002 | [10] -0.001 | [11] -0.081 | [12] -0.096 | [13] 0.195 | [14] 0.017 | [15] 0.053 | [16] 0.07 | [17] -0.042 | [18] 0.029 | [19] 0.021 | [20] -0.038

CDR2L (UniProt Q86X02)
inactive: [1] 0.243 | [2] 0.05 | [3] 0.01 | [4] 0.159 | [5] -0.02 | [6] -0.012 | [7] 0.107 | [8] 0.042 | [9] -0.062 | [10] 0.038 | [11] 0.035 | [12] -0.024 | [13] -0.012 | [14] -0.088 | [15] 0.018 | [16] -0.04 | [17] -0.124 | [18] 0.02 | [19] 0.023 | [20] 0.14

CDK19 (UniProt Q9BWU1)
inactive: [1] 0.275 | [2] 0.47 | [3] 0.085 | [4] -0.144 | [5] 0.165 | [6] 0.02 | [7] 0.032 | [8] 0.095 | [9] 0.059 | [10] 0.021 | [11] 0.043 | [12] 0.036 | [13] -0.101 | [14] 0 | [15] -0.046 | [16] -0.042 | [17] -0.043 | [18] -0.157 | [19] 0.042 | [20] 0.147

CDK7 (UniProt P50613)
inactive: [1] 0.003 | [2] 0.007 | [3] -0.001 | [4] 0.133 | [5] 0.005 | [6] -0.009 | [7] -0.008 | [8] 0.025 | [9] -0.017 | [10] 0.017 | [11] -0.004 | [12] 0.021 | [13] -0.002 | [14] 0.002 | [15] 0.014 | [16] 0.013 | [17] -0.044 | [18] -0.004 | [19] 0.005 | [20] -0.01

CDKAL1 (UniProt Q5VV42)
inactive: [1] -0.009 | [2] 0.058 | [3] 0 | [4] 0.024 | [5] -0.033 | [6] -0.011 | [7] -0.025 | [8] -0.031 | [9] 0.018 | [10] 0.033 | [11] 0.015 | [12] 0.008 | [13] -0.004 | [14] 0.02 | [15] -0.005 | [16] 0.052 | [17] 0.038 | [18] 0.004 | [19] 0.097 | [20] -0.007

CDC23 (UniProt Q9UJX2)
inactive: [1] 0 | [2] -0.001 | [3] 0.003 | [4] -0.022 | [5] -0.044 | [6] 0.026 | [7] 0.022 | [8] -0.018 | [9] 0.016 | [10] -0.005 | [11] 0.042 | [12] -0.063 | [13] 0.003 | [14] 0.002 | [15] -0.014 | [16] 0.013 | [17] -0.055 | [18] 0.002 | [19] -0.005 | [20] 0.01

CEP76 (UniProt Q8TAP6)
inactive: [1] -0.099 | [2] -0.023 | [3] 0.085 | [4] -0.093 | [5] 0 | [6] -0.026 | [7] -0.04 | [8] 0.053 | [9] 0.047 | [10] 0.085 | [11] -0.031 | [12] -0.015 | [13] 0.03 | [14] 0.084 | [15] -0.023 | [16] -0.006 | [17] 0.005 | [18] 0.002 | [19] 0 | [20] 0.001

CENPU (UniProt Q71F23)
inactive: [1] 0.044 | [2] -0.091 | [3] -0.085 | [4] 0.083 | [5] -0.055 | [6] 0.022 | [7] 0.166 | [8] -0.034 | [9] 0.001 | [10] -0.014 | [11] -0.04 | [12] -0.017 | [13] 0.029 | [14] -0.05 | [15] 0.013 | [16] 0.088 | [17] -0.003 | [18] 0.092 | [19] 0.129 | [20] 0.106

CDK5RAP2 (UniProt Q96SN8)
inactive: [1] -0.023 | [2] -0.186 | [3] 0.071 | [4] 0.029 | [5] -0.3 | [6] 0.001 | [7] 0.016 | [8] -0.067 | [9] 0.027 | [10] -0.008 | [11] 0.018 | [12] -0.15 | [13] 0.009 | [14] 0.037 | [15] -0.007 | [16] 0.045 | [17] 0.012 | [18] -0.007 | [19] -0.144 | [20] -0.021

Reprinted at random: two records from the list.
CDC34 (UniProt P49427)
inactive: [1] 0.083 | [2] 0.017 | [3] 0.006 | [4] -0.004 | [5] -0.028 | [6] 0.107 | [7] -0.057 | [8] -0.031 | [9] 0.058 | [10] 0.005 | [11] 0.057 | [12] -0.216 | [13] -0.017 | [14] -0.007 | [15] -0.041 | [16] -0.025 | [17] -0.052 | [18] 0.021 | [19] -0.016 | [20] 0.057

CEP192 (UniProt Q8TEP8)
inactive: [1] -0.003 | [2] 0.013 | [3] 0.206 | [4] 0.049 | [5] 0.05 | [6] 0.051 | [7] 0.499 | [8] -0.03 | [9] 0.002 | [10] -0.001 | [11] -0.081 | [12] -0.096 | [13] 0.195 | [14] 0.017 | [15] 0.053 | [16] 0.07 | [17] -0.042 | [18] 0.029 | [19] 0.021 | [20] -0.038

(listing goes on)

CDCA5 (UniProt Q96FF9)
inactive: [1] -0.045 | [2] 0.042 | [3] -0.061 | [4] 0.142 | [5] 0.04 | [6] -0.009 | [7] 0.029 | [8] -0.024 | [9] -0.041 | [10] -0.108 | [11] 0.017 | [12] -0.208 | [13] 0.06 | [14] 0.029 | [15] 0.073 | [16] 0.094 | [17] 0.004 | [18] -0.158 | [19] -0.044 | [20] -0.194

CEP120 (UniProt Q8N960)
inactive: [1] 0.052 | [2] -0.098 | [3] 0.033 | [4] -0.411 | [5] 0.029 | [6] -0.134 | [7] -0.233 | [8] 0.119 | [9] 0.008 | [10] 0.034 | [11] -0.046 | [12] 0.098 | [13] -0.096 | [14] -0.025 | [15] 0.273 | [16] 0.065 | [17] -0.117 | [18] 0.141 | [19] 0.038 | [20] 0.119

From the supplement of paper PMC10849652
